Results reported in patent US20090202660A1, “Agents and Methods for Osteogenic Oxysterols Inhibition of Oxidative Stress on Osteogenic Cellular Differentiation” (The Regents of the University of California, priority 2005, published 2009).

Assays:
[1] = test system: M2-10B4 marrow stromal cells; test: Matrix mineralization (45Ca incorporation assay, von Kossa staining); assay type: cell-based, mouse; details: M2 cells pretreated with inhibitor, then 22R+20S oxysterols; 10 days
Protocol: Von Kossa and oil red O staining—Matrix mineralization in cell monolayers was detected by silver nitrate staining as previously described. Oil red O staining for detection of adipocytes was performed as previously described.
^45Ca incorporation assay—Matrix mineralization in cell monolayers was quantified using the ^45Ca incorporation assay as previously described.
After 14 days, mineralization was identified by a von Kossa staining, which appears black. FIG. 3C is a depiction of von Kossa staining of M2 cells exposed to various conditions. […]

[2] = test system: M2-10B4 marrow stromal cells; test: Colorimetric alkaline phosphatase (ALP) activity assay on whole cell extracts; details: M2 cells pretreated with inhibitor, then 22R+20S oxysterols; 3 days
[3] = test system: M2 cells; test: Oxidative stress (XXO or MM-LDL) inhibition of osteoblastic differentiation of M2 cells; assay type: cell-based, mouse; details: SC-560 20 μM with SS 2.5 μM pretreatment, 48 hours
[4] = test system: osteocalcin mRNA; test: Northern blotting for osteocalcin mRNA in M2 cells; assay type: cell-based, mouse; details: M2 cells pretreated with inhibitor, then 22R+20S oxysterols; 8 days
Protocol: RNA isolation and Northern blot analysis—Following treatment of cells under appropriate experimental conditions, total RNA was isolated using the RNA isolation kit from Stratagene (La Jolla, Calif., U.S.A.). Total RNA ([…]) was run on a 1% agarose/formaldehyde gel and transferred to Duralon-UV membranes (Strategene, Calif., U.S.A.) and cross-linked with UV light. The membranes were hybridized overnight at 60 degree C. with ^32P-labeled mouse osteocalcin cDNA probe, mouse lipoprotein lipase (LPL), mouse adipocyte protein 2 (aP2) PCR-generated probes, human 28S or 18S rRNA probes obtained from Geneka Biotechnology (Montreal, Quebec, Canada) and Maxim Biotech (San Francisco, Calif., U.S.A.), respectively. The PCR products were generated using primer sets synthesized by Invitrogen (Carlsbad, Calif., U.S.A.) with the following specifications: mouse aP2 gene (accession no. M13261); sense (75-95) 5′-[…]-3′, antisense (362-383) 5′-[…]-3′, generating a PCR product of 309 base pairs. Mouse LPL (accession no. XM—134193); sense (1038-1058) 5′-[…]-3′, antisense (1816-1836) 5′-[…]-3′, generating a PCR product of 799 base pairs. […] The extent of gene induction was determined by densitometry.
After 4 and 8 days, total RNA from duplicate samples was isolated and analyzed for osteocalcin (Osc) and 28S rRNA expression by Northern blotting as described. […]

[5] = test system: marrow stromal cells; test: Markers of osteogenic differentiation in marrow stromal cells (ALP, osteocalcin mRNA, mineral formation); assay type: cell-based, mouse; details: SC-560 at 1-20 μM; NS-398 at 20 μM
Protocol: (A) M2 cells at confluence were pretreated for 4 hours with control vehicle (C) or 10 μM COX-1 inhibitor SC-560 (SC) in osteogenic medium as described earlier. Next, a combination of 22R and 20S oxysterols (RS, 2.5 μM each) were added in the presence or absence of SC as indicated. After 3 days, ALP activity was measured as described earlier. […] (B) M2 cells were treated as described in (A) and after 10 days matrix mineralization in cultures was quantified by a ^45Ca incorporation assay as described earlier. […] (C) M2 cells were pretreated with 20 μM SC for 4 hours, followed by the addition of RS in the presence or absence of SC as described above. After 8 days, total RNA was isolated and analyzed for osteocalcin (Osc) and […] expression by Northern blotting as previously described. […] After 3 days, ALP activity was measured as previously described. […] After 10 days, matrix mineralization in cultures was quantified using a ^45Ca incorporation assay as previously described. […]
The purpose of the study was to identify other osteogenic and anti-adipogenic oxysterols based on the chemical structure of previously identified oxysterols. […] In order to assess osteogenic differentiation of cells, one or more markers of osteogenic differentiation were measured in untreated cells and cells treated with the test oxysterols. […]

COc1ccc(-n2nc(C(F)(F)F)cc2-c2ccc(Cl)cc2)cc1 [SC-560, reference compound]
inhibition of oxysterol-induced mineralization [1]: inhibited | inhibition of oxysterol-induced alkaline phosphatase activity [2]: inhibited | effect of COX-1 inhibitor on oxysterol protection against XXO and MM-LDL (alkaline phosphatase activity) [3]: no longer protected | inhibition of oxysterol-induced osteocalcin gene expression [4]: inhibited | inhibition of the osteogenic effects of oxysterol combinations [5]: significantly inhibited
